# Reference: PubChem BioAssay AID445 (National Center for Advancing Translational Sciences (NCATS), 2006)
# This is one part of the list. Further columns of the screen follow, without active or inactive calls. Compounds called inactive in the main read-out are mostly missing here. Words in brackets tell the shape of the fitted curve; partial curves, single points and poor fits give uncertain potencies.
# Assay: IkB Signaling
# Details: ABC-DLBCL IkBa-CBG/CBR dual luciferase ratio (green luciferase fused to IkBa over red control in OCI-Ly3 lymphoma cells), 4 h; measured here: control luc red channel unless noted
# In short: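 Curves were fitted separately to fusion (green), unfused (red) and ratio luminescence, then classed by r2, magnitude and activity. Cells: OCI-Ly3, 4 h compound plus doxycycline at 37C; 10 uM MG-132 defined full response.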
row,Structure (SMILES),AC50
1,COc1ccc(C)cc1NC(=O)CSc1ccc(-c2ccccn2)nn1,"15.8 µM [falling, single point]"
2,COc1ccccc1C(=O)Nc1c(C(=O)N(C)c2ccccc2)sc2nc(C)cc(C)c12,"25.1 µM [falling, single point]"
3,Cc1nn2c(=O)cc(COC(=O)c3cccc(NC(=O)c4ccc(C(C)(C)C)cc4)c3)nc2s1,"3.16 µM [falling, full curve]"
4,Cc1ccc2[nH]c(=O)c3cc(C(=O)N(C)Cc4ccco4)sc3c2c1,"39.8 µM [falling, single point]"
5,O=C(COC(=O)c1cccc(NC(=O)c2ccc(Br)cc2)c1)c1ccc(Br)cc1,"10 µM [falling, partial curve]"
6,COc1cccc(C(=O)Nc2ccc3nc(N4CCC(C)CC4)cc(C)c3c2)c1,"7.94 µM [falling, partial curve]"
7,COc1ccc(C(=O)CCC(=O)Nc2ccc(OC)c(Cl)c2)cc1,"3.98 µM [rising, full curve]"
8,CCOC(=O)c1[nH]c2c(c1Cc1ccccc1OC)C(=O)CC(c1ccc(OCC)cc1)C2 (stereo not drawn),"10 µM [falling, partial curve]"
9,CCOC(=O)c1c(C)oc2nc(C)nc(NCCc3ccc(SC)cc3)c12,"20 µM [falling, partial curve, poor fit]"
10,CC(C)NC(=O)c1ccccc1NC(=O)c1nsc2ccccc12,"2.51 µM [rising, full curve]"
11,CCN(CC)S(=O)(=O)c1ccc2c(c1)N(CC(=O)Nc1ccc(C)cc1C)C(=O)C1CCCN21 (stereo not drawn),"0.0398 µM [rising, full curve]"
12,O=C(NC(Cc1ccccc1)C(=O)OCC(=O)N1CCc2ccccc21)c1ccco1 (stereo not drawn),"12.6 µM [falling, partial curve]"
13,O=C(Cc1ccc(Cl)cc1)NCC(c1cccs1)S(=O)(=O)c1ccc(F)cc1 (stereo not drawn),"10 µM [falling, partial curve]"
14,Cc1cccc(N2CCN(CCCNC(=O)c3nnc(Cc4c(F)cccc4Cl)o3)CC2C)c1 (stereo not drawn),"25.1 µM [falling, single point]"
15,COc1ccc(Cl)c(NC(=O)Cn2nnc(-c3ccccc3N)n2)c1,"10 µM [falling, partial curve]"
16,O=C(NCCc1ccccc1)c1ccc2c(c1)N(Cc1ccccc1)C(=O)c1ccccc1S2(=O)=O,"15.8 µM [rising, partial curve]"
17,COc1cccc(OCc2nc3ccccc3[nH]2)c1,"7.94 µM [falling, partial curve]"
18,O=C(OCC(=O)N1CCN(C(=O)c2ccco2)CC1)c1ccccc1OCc1ccc(Cl)cc1,"20 µM [falling, partial curve]"

# Reformatted bar-delimited: part of the list above
row | Structure (SMILES) | AC50
3 | Cc1nn2c(=O)cc(COC(=O)c3cccc(NC(=O)c4ccc(C(C)(C)C)cc4)c3)nc2s1 | 3.16 µM [falling, full curve]
4 | Cc1ccc2[nH]c(=O)c3cc(C(=O)N(C)Cc4ccco4)sc3c2c1 | 39.8 µM [falling, single point]
5 | O=C(COC(=O)c1cccc(NC(=O)c2ccc(Br)cc2)c1)c1ccc(Br)cc1 | 10 µM [falling, partial curve]
6 | COc1cccc(C(=O)Nc2ccc3nc(N4CCC(C)CC4)cc(C)c3c2)c1 | 7.94 µM [falling, partial curve]
